Screen size: about 78,000 compounds; about 1,800 (2.3%) were called active. This list was built around the results that the source calls inconclusive (neither active nor inactive); the mix of calls is not that of the screen. Cut-off read from the data, not from the text of the source: active = inhibition above about 30%; inconclusive = mostly about 10% to 28%; inactive = weaker than that.
target: Interleukin-1 receptor-like 1 (Homo sapiens) (UniProt Q01638); assay: blocks human ST2 binding to IL-33, primary screen, biochemical, AlphaLISA (AID 1259354); details: AlphaLISA ST2-Fc/biotin-IL-33 interaction, 1 h; at 17 µM, hits give high values

By UniProt entry, the sequences of proteins in these tests, tags left out. Where a name states a change or a piece, a line headed by the entry shows the natural chain unless it says otherwise.
UniProt Q01638: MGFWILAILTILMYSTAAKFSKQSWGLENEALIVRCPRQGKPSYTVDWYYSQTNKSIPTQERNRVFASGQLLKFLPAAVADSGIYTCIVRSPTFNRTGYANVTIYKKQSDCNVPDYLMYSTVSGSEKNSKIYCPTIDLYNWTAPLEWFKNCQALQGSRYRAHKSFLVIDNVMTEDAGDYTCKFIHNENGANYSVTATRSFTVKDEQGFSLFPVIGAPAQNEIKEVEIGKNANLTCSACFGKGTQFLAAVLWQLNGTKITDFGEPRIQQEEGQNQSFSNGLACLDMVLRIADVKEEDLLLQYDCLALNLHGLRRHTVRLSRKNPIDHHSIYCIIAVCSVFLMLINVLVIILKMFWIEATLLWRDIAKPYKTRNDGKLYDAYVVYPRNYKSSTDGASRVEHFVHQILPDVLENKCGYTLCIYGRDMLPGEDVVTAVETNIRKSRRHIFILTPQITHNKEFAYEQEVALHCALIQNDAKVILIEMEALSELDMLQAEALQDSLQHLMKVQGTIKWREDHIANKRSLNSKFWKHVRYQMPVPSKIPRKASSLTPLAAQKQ

SMILES | inhibition
CC1CCN(C(=O)Cn2c(=O)n(-c3ccc(F)c(Cl)c3)c(=O)c3sccc32)CC1 | inconclusive: 17%
O=C(NC[C@H]1O[C@@H](CO)[C@@H](O)[C@H]1N1CCN(c2cccc(C(F)(F)F)c2)CC1)Nc1ccccc1 | inconclusive: 17%
CC(C)NC(=O)c1cc(Nc2ccccc2)nc2ccccc12 | inconclusive: 17%
O=C(N[C@@H]1CN(C(=O)NC2CCCCC2)CCC[C@H]1O)c1ccc(OCCN2CCOCC2)cc1 | inconclusive: 16%
COc1cccc(CN(C)C(=O)c2cn(Cc3ccc(Cl)cc3)nn2)c1 | inconclusive: 12%
CC(=O)N1c2c(C)cccc2C(C)CC12CCCCCC2 (centres undefined) | inconclusive: 15%
CN(Cc1csc(-c2ccccc2)n1)C1CCN(S(C)(=O)=O)CC1 | inactive
Cc1cccn2c(=O)c3cc(C(=O)N4CCC(Cc5ccccc5)CC4)n(C)c3nc12 | inconclusive: 18%
O=C(COc1ccccc1[N+](=O)[O-])Nc1ccccc1C(F)(F)F | inconclusive: 25%
CC1=C[C@@H](CNC(=O)NC2CCCCC2)[C@H](C(C)C)C[C@H]1CC(=O)O | inactive
COc1cc(=O)n(C)c2c(OCC(O)C(C)(C)O)cccc12 (centres undefined) | inconclusive: 12%
COc1cc([N+](=O)[O-])ccc1NC(=O)C(C)(C)Oc1ccc(Cl)cc1 | active: 30%
C=CCN(Cc1ccc(F)cc1)C(=O)Cn1nc(C)c(C)c1C | inconclusive: 12%
COC(=O)[C@@H]1Cc2nc[nH]c2CN1Cc1cccs1 | inactive
Cc1ncc2c(c1CNC(=O)/C=C/c1ccccc1)CCN(C(=O)c1ccc(N3CCCC3=O)cc1)C2 | inconclusive: 10%
Oc1cccc(CN2CCN(C/C=C/c3ccccc3)CC2)c1 | inconclusive: 12%
CC(C)c1noc([C@@H]2C[C@H](NC(=O)c3ccccc3)CN2C)n1 | inconclusive: 18%
Cc1onc(-c2ccccc2)c1C(=O)N1CCCC(Nc2ccc3c(c2)OCCO3)C1 (centres undefined) | inactive
COc1ccc(C2CC(=O)C=C(Nc3ccccc3)C2)cc1 (centres undefined) | inactive
CC(C)C1CN(C(=O)c2ccccc2-n2cncn2)CCC(=O)N1CC1CC1 (centres undefined) | inactive
O=C(N[C@H]1CCN2C(=O)c3cc(-c4cccs4)ccc3NC(=O)[C@H]12)c1cccs1 | inconclusive: 14%
Cc1ccc(S(=O)(=O)Nc2ccc(Cl)cc2)cc1 | inconclusive: 17%
CN1C(=O)C(=Cc2cc(I)c(O)c([N+](=O)[O-])c2)C(=O)N(C)C1=O | inconclusive: 13%
COc1ccc(C2Nc3ccccc3NC3=C2C(=O)CC(c2cccs2)C3)c(OC)c1 (centres undefined) | inconclusive: 14%

An excerpt of these results, as tab-separated lines.
SMILES	inhibition
CN(Cc1csc(-c2ccccc2)n1)C1CCN(S(C)(=O)=O)CC1	inactive
Cc1cccn2c(=O)c3cc(C(=O)N4CCC(Cc5ccccc5)CC4)n(C)c3nc12	inconclusive: 18%
O=C(COc1ccccc1[N+](=O)[O-])Nc1ccccc1C(F)(F)F	inconclusive: 25%
CC1=C[C@@H](CNC(=O)NC2CCCCC2)[C@H](C(C)C)C[C@H]1CC(=O)O	inactive
COc1cc(=O)n(C)c2c(OCC(O)C(C)(C)O)cccc12 (centres undefined)	inconclusive: 12%
COc1cc([N+](=O)[O-])ccc1NC(=O)C(C)(C)Oc1ccc(Cl)cc1	active: 30%
C=CCN(Cc1ccc(F)cc1)C(=O)Cn1nc(C)c(C)c1C	inconclusive: 12%

Reference: PubChem BioAssay AID1259354 (Paczesny and Yang Labs, IUPUI and University of Michigan, 2018)
